PubChem BioAssay AID1508597 | Cure First, 2020

Purpose: 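Knock-downs altering ovarian cancer cell survival with or without PARP inhibitor rucaparib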 (primary screen)
System: human ovarian carcinoma lines grown from tumours: OCI-P5x (papillary serous) and OCI-C5x (clear cell)
Reagents: siRNA pool against human genes, 1.25 pmol siRNA per well
Time to read-out: 72 h or 96 h, depending on the cell culture
Treatment: rucaparib 20 µM (about IC30) or vehicle, present until read-out
Rucaparib or vehicle: Vehicle
Cell line: OCI-P5x (serous)
Measurement: 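Luminescent ATP-based viability assay read 72 or 96 h after transfection, depending on culture, given as normalised percent viability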
Direction: viability, normalised: higher = more viable cells remaining
Hit rule: 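Active when normalised viability falls below 80 percent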
Meaning of the calls: active = viability under 80%; inactive = viability 80% or more
This is a random part of the about 2,100 reagents, under one of the conditions tested. 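Calls flag viability under 80% in either arm, not effects specific to rucaparib; the reference for percent is not stated.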 A reagent listed more than once was tested more than once; the source does not tell the runs apart. Not stated in the record: the 100% reference.

no.	gene symbol	technical replicate	viability, normalised (%)	Call
1	BRD7	1	105	inactive
2	BRD7	2	75.8	active
3	BRD7	3	107	inactive
4	PMS2	1	155	inactive
5	PMS2	2	162	inactive
6	PMS2	3	162	inactive
7	PGK1	1	49.4	active
8	PGK1	2	61.6	active
9	PGK1	3	58.5	active
10	UBE2A	1	68.4	active
11	UBE2A	2	56.3	active
12	UBE2A	3	63.3	active
13	FLT1	1	78.4	active
14	FLT1	2	85.1	inactive
15	FLT1	3	68.7	active
16	DDX18	1	58.5	active
17	DDX18	2	71.5	active
18	DDX18	3	80.3	inactive
19	DHX57	1	67.7	active
20	DHX57	2	89	inactive
21	DHX57	3	83.7	inactive
22	SKIC2	1	65.5	active
23	SKIC2	2	72.2	active
24	SKIC2	3	81.3	inactive
25	CDK19	1	41	active
26	CDK19	2	44.3	active
27	CDK19	3	51.1	active
28	ETNK1	1	91.5	inactive
29	ETNK1	2	78.7	active
30	ETNK1	3	80	inactive
31	BRWD1	1	61	active
32	BRWD1	2	45.4	active
33	BRWD1	3	66.8	active
34	WNT4	1	66.2	active
35	WNT4	2	69	active
36	WNT4	3	63.3	active
37	RAF1	1	101	inactive
38	RAF1	2	84.4	inactive
39	RAF1	3	94.2	inactive
40	LATS1	1	76.9	active
41	LATS1	1	57.9	active
42	LATS1	2	76.8	active
43	LATS1	2	70.9	active
44	LATS1	3	61.4	active
45	LATS1	3	77.3	active
46	USH2A	1	54.9	active
47	USH2A	2	54.9	active
48	USH2A	3	72.4	active
49	TH	1	56.8	active
50	TH	2	66.9	active
51	TH	3	63.7	active
52	STK17A	1	85.2	inactive
53	STK17A	2	82.8	inactive
54	STK17A	3	75.4	active
55	AANAT	1	49.3	active
56	AANAT	2	74.9	active
57	AANAT	3	52.2	active

As entered above.
PMS2, technical replicate 3, Call: inactive
ETNK1, technical replicate 3, Call: inactive
Value for UBE2A, technical replicate 2 under “Call”: active
Value for ETNK1, technical replicate 2 in “viability, normalised (%)”: 78.7
For “Call”, PGK1, technical replicate 1 shows active
For “viability, normalised (%)”, STK17A, technical replicate 1 shows 85.2
